PubChem BioAssay AID1259405 – NCATS | 2018

- Test: 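Mouse-designed siRNAs used to find CHO productivity engineering targets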 (primary screen)
- Cells: Chinese hamster CHO-K1 ovary cells with stable secreted eGFP expression
- Reagent: single siRNA against mouse genes, 0.8 pmol siRNA per well (2 µl of 400 nM stock)
- Duration: 3 days
- Read-out: 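Percent of the per-plate non-targeting control median for intracellular GFP per well by laser scanning cytometry and for cell viability by ATP luminescence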
- Direction: GFP, % of control: higher = more GFP per well, higher productivity; viability (ATP), % of control: higher = more viable cells (more ATP)
- Call rule: 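Called active when intracellular GFP, relative to negative control, is at or above 120%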
This is one part, drawn at random, of about 50,000 reagents. About 4,000 of them (8%) count as active. 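Mouse siRNA library applied to hamster cells; one well for each siRNA.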 The numbers tell different reagents against one gene apart. No sequences are given here.

GFP, % of control	viability (ATP), % of control	Outcome	gene	siRNA no.
68.1	75.4	inactive	Spata24 (GeneID 71242)	1
101	91.1	inactive	Spata24 (GeneID 71242)	2
147	146	active	Spata24 (GeneID 71242)	3
63.2	51.4	inactive	Esam (GeneID 69524)	1
118	93.3	inactive	Esam (GeneID 69524)	2
55.9	70.4	inactive	Matcap2 (GeneID 68283)	1
79.4	77.1	inactive	Matcap2 (GeneID 68283)	2
62.7	82.3	inactive	Matcap2 (GeneID 68283)	3
55.9	54.4	inactive	Or4f52 (GeneID 257980)	1
77.4	66.1	inactive	Or4f52 (GeneID 257980)	2
63.3	93.6	inactive	Or4f52 (GeneID 257980)	3
58.1	44	inactive	Or12j2 (GeneID 257939)	1
81	121	inactive	Or12j2 (GeneID 257939)	2
99.6	81.3	inactive	Or12j2 (GeneID 257939)	3
104	60.5	inactive	Mecom (GeneID 14013)	1
89.9	86	inactive	Mecom (GeneID 14013)	2
53.4	64.5	inactive	Mecom (GeneID 14013)	3
107	75.5	inactive	Mecom (GeneID 14013)	4
106	77.9	inactive	Mecom (GeneID 14013)	5
61.3	65.7	inactive	Chmp4c (GeneID 66371)	1
52	47.9	inactive	Chmp4c (GeneID 66371)	2
60.3	77.9	inactive	Chmp4c (GeneID 66371)	3
101	70.4	inactive	Asb4 (GeneID 65255)	1
89.2	80	inactive	Asb4 (GeneID 65255)	2
112	93.5	inactive	Asb4 (GeneID 65255)	3
92.6	66.6	inactive	Pea15b-ps (GeneID 231332)	1
59	37.9	inactive	Pea15b-ps (GeneID 231332)	2
84.6	51.2	inactive	Pea15b-ps (GeneID 231332)	3
98.1	94.5	inactive	Fcer1a (GeneID 14125)	1
76.5	61.1	inactive	Fcer1a (GeneID 14125)	2
74.2	64	inactive	Fcer1a (GeneID 14125)	3
117	94.8	inactive	Arhgdib (GeneID 11857)	1
69.5	53.7	inactive	Arhgdib (GeneID 11857)	2
141	116	active	Arhgdib (GeneID 11857)	3
132	70.7	active	Speer3 (GeneID 71026)	1
98.6	102	inactive	Speer3 (GeneID 71026)	2
106	132	inactive	Speer3 (GeneID 71026)	3
89.9	69	inactive	Gda (GeneID 14544)	1
95.7	91.5	inactive	Gda (GeneID 14544)	2
75.9	75.4	inactive	Gda (GeneID 14544)	3
62.1	64	inactive	Trcg1 (GeneID 541610)	1
69.6	53	inactive	Trcg1 (GeneID 541610)	2
73.3	50.1	inactive	Trcg1 (GeneID 541610)	3
73.6	82.4	inactive	Or4c109 (GeneID 258899)	1
65.4	86.7	inactive	Or4c109 (GeneID 258899)	2
66.9	72.4	inactive	Or4c109 (GeneID 258899)	3
69.5	112	inactive	Clstn1 (GeneID 65945)	1
36.1	37.6	inactive	Clstn1 (GeneID 65945)	2
76.2	109	inactive	Clstn1 (GeneID 65945)	3
95.8	76.6	inactive	D3Ertd751e (GeneID 73852)	1
79.8	66.1	inactive	D3Ertd751e (GeneID 73852)	2
85.6	90.8	inactive	D3Ertd751e (GeneID 73852)	3
65.3	63.5	inactive	Sdc3 (GeneID 20970)	1
49.9	63.4	inactive	Sdc3 (GeneID 20970)	2
76.6	60.6	inactive	Sdc3 (GeneID 20970)	3
99.5	96.3	inactive	Hcfc2 (GeneID 67933)	1
59.5	78.2	inactive	Hcfc2 (GeneID 67933)	2
64.6	59.7	inactive	Hcfc2 (GeneID 67933)	3
107	111	inactive	Gprc5c (GeneID 70355)	1
75.1	68	inactive	Gprc5c (GeneID 70355)	2
69.6	71.3	inactive	Gprc5c (GeneID 70355)	3
145	88.8	active	Nupr2 (GeneID 69034)	1
84.6	77.2	inactive	Nupr2 (GeneID 69034)	2
72.6	68.9	inactive	Nupr2 (GeneID 69034)	3
122	93.6	active	Rasl10b (GeneID 276952)	1
23.8	45.1	inactive	Rasl10b (GeneID 276952)	2
72.5	48.5	inactive	Rasl10b (GeneID 276952)	3
125	76.6	active	Or11h7 (GeneID 258295)	1
81.9	83.1	inactive	Or11h7 (GeneID 258295)	2
66.2	66.2	inactive	Or11h7 (GeneID 258295)	3
81	98.3	inactive	Nanos1 (GeneID 332397)	1
80.4	91	inactive	Nanos1 (GeneID 332397)	2
67.5	76.9	inactive	Nanos1 (GeneID 332397)	3
55.2	55.6	inactive	Kcnma1 (GeneID 16531)	1
75.6	105	inactive	Kcnma1 (GeneID 16531)	2
80	97.4	inactive	Kcnma1 (GeneID 16531)	3
66.8	70.6	inactive	Itm2a (GeneID 16431)	1
62.9	68.8	inactive	Itm2a (GeneID 16431)	2
57.7	28.3	inactive	Itm2a (GeneID 16431)	3
100	75.4	inactive	Or2ab1 (GeneID 257892)	1
86.9	58.9	inactive	Or2ab1 (GeneID 257892)	2
131	68	active	Or2ab1 (GeneID 257892)	3
87.9	97.5	inactive	Spaca9 (GeneID 69987)	1
128	98.1	active	Spaca9 (GeneID 69987)	2
68.1	98.5	inactive	Spaca9 (GeneID 69987)	3
